Where a name gives a salt, the structure may show the parent alone. The list shows a part of the results. Many values rest on one well or one pass, so single values are uncertain. *1 amine or outer side, *2 acyl side, *3 side chain or, on linkers, in order; H or OH if unused. Where a SMILES comes first, the peptide text is derived from it. Bridges are numbered along the chain shown (N, C = ends). [ ]: non-standard residue; d: D form. The star is where a group is joined. X1 = NC1=N[C@@H]([C@H](N[*:1])C(=O)[*:2])C[C@H](O)N1; ΔAla(Z-3-ureido) = NC(=O)N/C=C(\N)C(=O)O; β3hOrn = NCCC[C@H](N)CC(=O)*; Dap = NC[C@H](N)C(=O)O

The test system of this assay is p95-ErbB2-MCF7. Kind of assay: perinuclear lysosome accumulation (PNLA, size of LAMP2 puncta), robust Z-score vs plate median; higher = more perinuclear lysosome accumulation (reversal of invasive lysosome distribution). As to conditions: 5 µM; 24 h.
Turning to `C[C@H](CCC(=O)O)[C@H]1CC[C@H]2[C@@H]3CC[C@@H]4C[C@H](O)CC[C@]4(C)[C@H]3CC[C@]12C` [Lithocholic acid], the perinuclear lysosome accumulation is -0.724.
With `COC(=O)C1=C(C)NC(C)=C(C(=O)OC(C)C)C1c1cccc2nonc12` (stereo not given) [Isradipine], the perinuclear lysosome accumulation is -0.0671.
In the case of `COCC(=O)Nc1c(I)c(C(=O)NCC(O)CO)c(I)c(C(=O)N(C)CC(O)CO)c1I` (stereo not given) [Iopromide], the perinuclear lysosome accumulation was -0.993.
Regarding `C[C@@]1(O)CCOC(=O)C1` [Mevalonic-D, L acid lactone], the perinuclear lysosome accumulation stood at 0.841.
Regarding `O=C(O)CCCC[C@@H]1SC[C@@H]2NC(=O)N[C@@H]21` [Biotin], the perinuclear lysosome accumulation was 0.626.
As for `CC1COc2c(N3CCN(C)CC3)c(F)cc3c(=O)c(C(=O)O)cn1c23` (stereo not given) [Ofloxacin], the perinuclear lysosome accumulation is -2.09.
Take `CC(C)C(=O)Nc1ccc([N+](=O)[O-])c(C(F)(F)F)c1` [Flutamide]: the perinuclear lysosome accumulation is -0.123.
On to `Cn1cnc([N+](=O)[O-])c1Sc1ncnc2[nH]cnc12` [Azathioprine], for which the perinuclear lysosome accumulation turned out to be 0.0549.
In the case of `OCCN1C[C@H](O)[C@@H](O)[C@H](O)[C@H]1CO` [Miglitol], the perinuclear lysosome accumulation was -0.753.
On to `NCC[C@H](O)C(=O)N[C@@H]1C[C@H](N)[C@@H](O[C@H]2O[C@H](CN)[C@@H](O)[C@H](O)[C@H]2O)[C@H](O)[C@H]1O[C@H]1O[C@H](CO)[C@@H](O)[C@H](N)[C@H]1O` [Amikacin hydrate], for which the perinuclear lysosome accumulation is -0.122.
For `Fc1ccc([C@@H]2CCNC[C@H]2COc2ccc3c(c2)OCO3)cc1` [Paroxetine Hydrochloride], the perinuclear lysosome accumulation was -3.23.
As to `Nc1nc(O)c2ncn(CCC(CO)CO)c2n1` [Penciclovir], the perinuclear lysosome accumulation worked out at 0.938.
In the case of `O=c1[nH]cnc2c1ncn2[C@H]1CC[C@@H](CO)O1` [Didanosine], the perinuclear lysosome accumulation is -1.57.
With `NCCC[C@H](N)CC(=O)N[C@H]1CNC(=O)[C@H]([C@H]2C[C@H](O)NC(N)=N2)NC(=O)/C(=C/NC(N)=O)NC(=O)[C@H](CO)NC(=O)[C@H](CO)NC1=O` [Viomycin sulfate] (β3hOrn-[Dap]SS[ΔAla(Z-3-ureido)][X1]; lactam 1-C), the perinuclear lysosome accumulation was -0.391.
With `NC(CO)C(=O)NNCc1ccc(O)c(O)c1O` (stereo not given) [Benserazide hydrochloride], the perinuclear lysosome accumulation stood at 0.0512.
In the case of `CN1CCC(OC(c2ccccc2)c2ccccc2)CC1` [Diphenylpyraline hydrochloride], the perinuclear lysosome accumulation is -0.123.
As to `Clc1ccc(Nc2nnc(Cc3ccncc3)c3ccccc23)cc1` [Vatalanib], the perinuclear lysosome accumulation worked out at 0.514.
On to `Cc1cc(N)c2ccccc2[n+]1CCCCCCCCCC[n+]1c(C)cc(N)c2ccccc21` [Dequalinium dichloride], for which the perinuclear lysosome accumulation was determined as 2.42.
Regarding `Nc1ccn([C@@H]2CS[C@H](CO)O2)c(=O)n1` [Lamivudine], the perinuclear lysosome accumulation amounted to 0.286.
Under `COc1ccccc1OCC(O)COC(N)=O` (stereo not given) [Methocarbamol] stands -0.242; under `NC1CCN(c2nc3c(cc2F)c(=O)c(C(=O)O)cn3-c2ccc(F)cc2F)C1` (stereo not given) [Tosufloxacin hydrochloride], -1.85; under `COC(=O)Nc1nc2cc([S+]([O-])c3ccccc3)ccc2[nH]1` (stereo not given) [Oxfendazol], -0.427.
Regarding `c1ccc(CNc2ncnc3nc[nH]c23)cc1` [Aminopurine, 6-benzyl], the perinuclear lysosome accumulation was 0.935.
With `CN1Cc2c(N)cccc2C(c2ccccc2)C1` (stereo not given) [Nomifensine maleate] the figure was 0.356.
Turning to `CC(C)(O)c1ccccc1CC[C@@H](SCC1(CC(=O)O)CC1)c1cccc(/C=C/c2ccc3ccc(Cl)cc3n2)c1` [Montelukast], the perinuclear lysosome accumulation was 0.774.
With `CCOC(=O)[C@@](C)(N)Cc1ccc(O)c(O)c1` [Methyldopate hydrochloride] the figure was -0.242; with `O=C(c1ccccc1)c1ccc2n1CCC2C(=O)O` (stereo not given) [Ketorolac tromethamine], -0.554; with `COc1c(N2CCNC(C)C2)c(F)cc2c(=O)c(C(=O)O)cn(C3CC3)c12` (stereo not given) [Gatifloxacin], -3.04.
In the case of `CC(C(=O)O)c1ccc(C(=O)c2ccccc2)s1` (stereo not given) [Tiaprofenic acid], the perinuclear lysosome accumulation is 1.41.
Regarding `CC(=O)N(CC(O)CN(C(C)=O)c1c(I)c(C(=O)NCC(O)CO)c(I)c(C(=O)NCC(O)CO)c1I)c1c(I)c(C(=O)NCC(O)CO)c(I)c(C(=O)NCC(O)CO)c1I` (stereo not given) [Iodixanol], the perinuclear lysosome accumulation was -0.376.
For the compound `c1ccc(CN(CC2=NCCN2)c2ccccc2)cc1` [Antazoline hydrochloride], the perinuclear lysosome accumulation is -1.03.
Consider `CN(C)CC/C=C1/c2ccccc2COc2ccc(CC(=O)O)cc21` [Olopatadine hydrochloride], for which the perinuclear lysosome accumulation stood at 0.718.
For `C=CCSCC1Nc2cc(Cl)c(S(N)(=O)=O)cc2S(=O)(=O)N1` (stereo not given) [Althiazide], the perinuclear lysosome accumulation came to 1.55.
For `CCCOc1ccc(C(=O)OCCN(CC)CC)cc1N` [Proparacaine hydrochloride], the perinuclear lysosome accumulation came out at 1.48.
In the case of `CC(=O)OCC(=O)[C@@]1(OC(C)=O)[C@@H](C)C[C@H]2[C@@H]3C[C@H](F)C4=CC(=O)C=C[C@]4(C)[C@@]3(F)[C@@H](O)C[C@@]21C` [Diflorasone Diacetate], the perinuclear lysosome accumulation was -1.24.
Consider `C[C@]1(Cn2ccnn2)[C@H](C(=O)O)N2C(=O)C[C@H]2S1(=O)=O` [Tazobactam], for which the perinuclear lysosome accumulation was -0.297.
As for `CC(CN(C)C)C(C)(O)Cc1ccc(Cl)cc1` (stereo not given) [Clobutinol hydrochloride], the perinuclear lysosome accumulation is -1.44.
With `CC[C@@H](CO)NCCN[C@@H](CC)CO` [Ethambutol dihydrochloride] the figure was -0.0111; with `C=CCOC(Cn1ccnc1)c1ccc(Cl)cc1Cl` (stereo not given) [Enilconazole], -1.2; with `CC1(C)[C@@H](OC(=O)CCC(=O)O)CC[C@]2(C)[C@H]3C(=O)C=C4[C@@H]5C[C@@](C)(C(=O)O)CC[C@]5(C)CC[C@@]4(C)[C@]3(C)CC[C@@H]12` [Carbenoxolone disodium salt], 1.29.
In the case of `CC(CN(C)C)CN1c2ccccc2Sc2ccccc21` (stereo not given) [Trimeprazine tartrate], the perinuclear lysosome accumulation is 2.69.
Under `C#C[C@]1(O)CC[C@H]2[C@@H]3CCC4=CC(=O)CC[C@@H]4[C@H]3CC[C@@]21CC` [Norgestrel-(-)-D] stands -0.538.
Take `N=C(N)NCCN1CCCCCCC1` [Guanethidine sulfate]: the perinuclear lysosome accumulation worked out at 0.948.
Under `CN(C)[C@@H]1C(O)=C(C(N)=O)C(=O)[C@@]2(O)C(O)=C3C(=O)c4c(O)cccc4[C@@](C)(O)[C@H]3[C@H](O)[C@@H]12` [Oxytetracycline dihydrate] stands 0.913; under `CSc1ccc2c(c1)N(CCC1CCCCN1C)c1ccccc1S2` (stereo not given) [Thioridazine hydrochloride], 5.71.
